The test has as its target PRC5-PTP (Trypanosoma brucei) (UniProt Q386L5). Description: co-sedimentation; final eluate of a standard PRC5-PTP tandem affinity purification sedimented through a 4 ml linear 10-40% sucrose gradient by ultracentrifugation, 20 fractions, SDS-PAGE, SYPRO Ruby; bands identified by LC/MS/MS; peak in fractions 13 and 14.

Protein sequences, listed by entry. Tags and fused reporters are not part of them. Lines headed by an entry give the natural chain unless they say otherwise; changes in a name come on top.
UniProt Q386L5: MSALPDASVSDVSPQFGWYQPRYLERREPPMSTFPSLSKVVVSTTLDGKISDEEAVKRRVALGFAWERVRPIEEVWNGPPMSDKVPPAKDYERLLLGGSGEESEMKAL
UniProt Q38A09: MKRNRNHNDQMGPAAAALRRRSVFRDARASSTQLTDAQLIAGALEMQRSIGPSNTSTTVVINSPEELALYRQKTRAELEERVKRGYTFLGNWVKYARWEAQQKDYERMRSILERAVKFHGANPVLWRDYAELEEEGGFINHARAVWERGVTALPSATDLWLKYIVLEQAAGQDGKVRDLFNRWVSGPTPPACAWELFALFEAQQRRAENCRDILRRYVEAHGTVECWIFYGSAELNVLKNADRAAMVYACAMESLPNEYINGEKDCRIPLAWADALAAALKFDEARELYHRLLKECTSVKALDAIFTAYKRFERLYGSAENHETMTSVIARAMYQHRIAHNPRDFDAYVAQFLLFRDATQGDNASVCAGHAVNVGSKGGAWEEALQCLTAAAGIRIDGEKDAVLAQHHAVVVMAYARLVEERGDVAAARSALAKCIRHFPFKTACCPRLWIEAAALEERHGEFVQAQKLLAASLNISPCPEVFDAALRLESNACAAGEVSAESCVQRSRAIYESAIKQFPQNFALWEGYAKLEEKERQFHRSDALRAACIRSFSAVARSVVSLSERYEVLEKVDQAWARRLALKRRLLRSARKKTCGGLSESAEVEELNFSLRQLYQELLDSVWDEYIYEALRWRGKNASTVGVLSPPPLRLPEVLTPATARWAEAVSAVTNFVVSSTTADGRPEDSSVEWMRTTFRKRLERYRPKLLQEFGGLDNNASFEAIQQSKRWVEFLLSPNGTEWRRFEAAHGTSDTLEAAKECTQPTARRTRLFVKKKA
UniProt Q581Y9: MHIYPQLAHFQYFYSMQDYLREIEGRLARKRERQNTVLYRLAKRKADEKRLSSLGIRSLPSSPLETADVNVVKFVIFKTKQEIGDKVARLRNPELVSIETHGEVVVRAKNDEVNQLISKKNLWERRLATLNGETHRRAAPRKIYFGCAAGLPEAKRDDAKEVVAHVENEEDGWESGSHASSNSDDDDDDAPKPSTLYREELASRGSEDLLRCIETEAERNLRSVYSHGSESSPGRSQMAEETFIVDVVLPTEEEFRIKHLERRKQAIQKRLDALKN

These are yes or no findings as the source states them, for the method shown. Binding seen in cells or lysates may run through a third protein. A result given as binding can be weak or reduced; the word gives no strength.

As for SYF3 (from UniProt Q38A09), the binding entry was “binds”.
In the case of ISY1 (from UniProt Q581Y9) it was “binds”.
